Results are given in words; binding and its absence hold for the method and conditions named. Binding can be weak; no strength is given.
What was measured:
[1] = target: human FGFR2b protein (recombinant, coated on ELISA plates) (human); assay: ELISA
[2] = target: cyno FGFR2b protein (recombinant) (cyno); assay: ELISA
[3] = target: cyno FGFR2b protein (recombinant) (cyno); assay: SPR
[4] = target: soluble human FGFR2b protein (his tag, in-house generated) (human); assay: SPR

| binding [1] | binding [2] | binding [3] | binding [4] | Binder |
| --- | --- | --- | --- | --- |
| binds | binds | – | – | BGAm1371 (antibody, V domains shown) VH: QVQLKQSGAELVKPGASVKLSCTASGFNIKDTYIHWVKQRPEQGLEWIGRIDPANGNTMFASEFQGKATITAYTSSNTAYMQLSSLTSGDTAVYYCARSKIHYDYDEGFAYWGQGTLVTVSS VL: NIVLTQSPPSLAVSLGQRATVSCRASESVDDYGYSFLHWYQQKPGQPPKLLIYRASNLESGIPARFSGSGSRTDFTLTINPVETDDVATYYCQQSNQNPRTFGGGTKLEIK |
| binds | binds | – | – | BGAm1823 (antibody, V domains shown) VH: EVQLQQSGAELVKPGASVKISCKASGYAFSIYWMNWVKQRPGKGLEWIGQIYPENGDTNYNGKFKGKATLTADKSSSTAYMHLSSLTSEDSAVYFCARGGFDYWGQGTTLTVSS VL: NIVMTQSPASLSASVGETVTITCRASENIYSNLAWYQQKQGKSPQLLVYTATNLADGVPSRFSGSGSGTQFSLKINSLQPEDFGSYYCQHFYGILYTFGSGTRLEIK |
| binds | binds | binds | binds | BGAh9239 (antibody, human IgG1, kappa, V domains shown) VH: QVQLVQSGAEVKKPGSSVKVSCKASGYTFSIYWLNWVRQAPGQGLEWMGQIYPENADTNYSGKFKGRVTITADKSTSTAYMELSSLRSEDTAVYFCARGGFDYWGQGTLVTVSS VL: DIQMTQSPSSLSASVGDRVTITCRASENIYSNLAWYQQKPGKAPKLLIYTATNLAEGVPSRFSGSGSGTDFTLTISSLQPEDFATYYCQHFYGILYTFGQGTRLEIKR |
| binds | binds | binds | binds | BGAh9179 (antibody, human IgG1, kappa, V domains shown) VH: QVQLVQSGAEVKKPGASVKVSCKASGYTITDTYIHWVRQAPGQGLEWMGRIDPAEGNTMFASEFQGRVTMTADTSTSTVYMELSSLRSEDTAVYYCARSKIHYDYDEGFAYWGQGTLVTVSS VL: DIVLTQSPDSLAVSLGERATINCRASESVDDYGYSFLHWYQQKPGQPPKLLIYRASNLESGVPDRFSGSGSGTDFTLTISSLQAEDVAVYYCQQSNQNPRTFGGGTKVEIKR |
